Screening data

Source: PubChem BioAssay AID1053133 (Broad Institute, 2014).

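Plate-reader measure of the Venus reporter marking one vaccinia stage in infected cells (the cell line is not named here); read time unknown. The test concentration is not given here. Percent change in Venus reporter signal; lower (more negative) values mean stronger inhibition of that viral stage.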

Values are in %. The controls that fix the scale are not given here. Common to all entries: measured here: Venus reporter, other viral stage. Part of the compounds only, not a random draw; the main read-out is not listed here.

| # | structure | activity change (Venus) (%) |
|---|---|---|
| 1 | `C[C@H](CO)N1C[C@H](C)[C@@H](CN(C)Cc2ccccc2)Oc2cc(C#CCN(C)C)ccc2S1(=O)=O` | -30.65 |
| 2 | `COc1ccc(CN(C)C[C@H]2OCCCC[C@@H](C)Oc3ccc(NS(=O)(=O)c4ccc(Cl)cc4)cc3C(=O)N([C@@H](C)CO)C[C@H]2C)cc1` | -72.17 |
| 3 | `C[C@H](CO)N1C[C@H](C)[C@@H](CN(C)S(C)(=O)=O)Oc2cc(C#Cc3ccc(F)cc3)ccc2S1(=O)=O` | -33.69 |
| 4 | `C[C@H]1CCCCO[C@H](CN(C)C(=O)NC2CCCCC2)[C@@H](C)CN([C@@H](C)CO)C(=O)c2cc(NC(=O)Cc3ccccc3)ccc2O1` | -36.37 |
| 5 | `C[C@H]1CCCCO[C@H](CN(C)S(=O)(=O)c2ccccc2)[C@@H](C)CN([C@@H](C)CO)C(=O)c2cc(NC(=O)Cc3ccccc3)ccc2O1` | -37.19 |
| 6 | `O=C(Nc1ccc(F)cc1)N1CCCCN2[C@H](C1)[C@H](c1ccc(C#CC3CC3)cc1)[C@@H]2CO` | -44.15 |
| 7 | `COc1cccc(NC(=O)N(C)C[C@@H]2Oc3cc(C#Cc4ccc(F)cc4)ccc3S(=O)(=O)N([C@H](C)CO)C[C@H]2C)c1` | -48.71 |
| 8 | `COc1ccc(S(=O)(=O)N(C)C[C@H]2OCCCC[C@H](C)Oc3ccc(NS(=O)(=O)c4c(C)noc4C)cc3C(=O)N([C@H](C)CO)C[C@H]2C)cc1` | -28.22 |
| 9 | `C[C@@H]1CCCCO[C@@H](CN(C)CC2CCCCC2)[C@@H](C)CN([C@@H](C)CO)C(=O)c2cc(NC(=O)C3CCCCC3)ccc2O1` | -48.22 |
| 10 | `C[C@H](CO)N1C[C@H](C)[C@H](CN(C)C(=O)Nc2ccc3c(c2)OCO3)Oc2ncc(C#Cc3cccc(F)c3)cc2C1=O` | -49.95 |
| 11 | `CO[C@@H]1CN(C)C(=O)c2ccc(NS(=O)(=O)c3cccc(C)c3)cc2OC[C@@H](C)N(Cc2cc(F)ccc2F)C[C@H]1C` | -26.52 |
| 12 | `N#Cc1ccc(-c2ccc([C@@H]3[C@H](CO)N4CCCCN(C(=O)Nc5ccc(F)cc5)C[C@@H]34)cc2)cc1` | -66.49 |
| 13 | `N#Cc1cccc(-c2ccc(C3[C@@H]4CN(C(=O)c5ccccn5)C[C@H]3N4)cc2)c1` (some centres unmarked) | -38.71 |
| 14 | `C[C@@H]1CN([C@H](C)CO)S(=O)(=O)c2ccc(C3=CCCCC3)cc2O[C@@H]1CN(C)C(=O)c1ccc(F)cc1` | -53.1 |
| 15 | `O=C(Nc1cccc(F)c1)N1CC(=O)N2[C@H](CO)[C@@H](c3ccc(-c4ccc(F)cc4)cc3)[C@@H]2C1` | -35.42 |
| 16 | `C[C@H](O)C#Cc1cnc2c(c1)C(=O)N([C@@H](C)CO)C[C@@H](C)[C@@H](CN(C)Cc1ccc(-c3ccccc3)cc1)O2` | -29.46 |
| 17 | `C[C@H](CO)N1C[C@H](C)[C@@H](CN(C)Cc2ccccc2)Oc2cc(Br)ccc2S1(=O)=O` | -35.8 |
| 18 | `CC(C)C#Cc1ccc2c(c1)O[C@H](CN(C)Cc1ccccc1)[C@H](C)CN([C@@H](C)CO)S2(=O)=O` | -28.26 |
| 19 | `N#C[C@@H]1[C@@H](c2ccc(C3=CCCCC3)cc2)[C@H](CO)N1S(=O)(=O)c1ccccc1` | -30.94 |
| 20 | `C[C@@H]1CCCCO[C@H](CN(C)C(=O)CCC(F)(F)F)[C@@H](C)CN([C@@H](C)CO)C(=O)c2cc(NC(=O)C3CCCCC3)ccc2O1` | -43.38 |
| 21 | `C[C@H]1CCCCO[C@H](CN(C)C(=O)C2CCCCC2)[C@@H](C)CN([C@@H](C)CO)C(=O)c2cc(NS(=O)(=O)c3ccc(F)cc3)ccc2O1` | -28.98 |
| 22 | `CC(C)CC#Cc1ccc([C@@H]2[C@H]3CN(C(=O)c4cccc(F)c4)CC(=O)N3[C@H]2CO)cc1` | -59.01 |
| 23 | `CC(C)CC#Cc1ccc2c(c1)O[C@H](CN(C)C(=O)Nc1ccccc1F)[C@H](C)CN([C@H](C)CO)S2(=O)=O` | -56.25 |
| 24 | `C/C=C/c1ccc([C@H]2[C@@H](CO)N3C(=O)CN(C(=O)Nc4cccc(OC)c4)C[C@H]23)cc1` | -39.51 |
| 25 | `C[C@@H]1CN([C@H](C)CO)S(=O)(=O)c2ccc(C3=CCCCC3)cc2O[C@H]1CN(C)Cc1ccncc1` | -53.44 |
| 26 | `CN(C)c1ccc2c(c1)[C@@H]1C[C@@H](CC(=O)NCc3ccc(-c4ccccc4)cc3)O[C@@H](CO)[C@@H]1O2` | -33.04 |
| 27 | `CC(C)NC(=O)N1CCCCN2[C@H](C1)[C@@H](c1ccc(C#Cc3ccccc3)cc1)[C@@H]2CO` | -67.32 |
| 28 | `C[C@@H]1CCCCO[C@H](CN(C)CC2CCCCC2)[C@H](C)CN([C@@H](C)CO)C(=O)c2cc(NS(=O)(=O)c3ccccc3)ccc2O1` | -68.55 |
| 29 | `C[C@H]1CCCCO[C@@H](CN(C)C(=O)Nc2ccc3c(c2)OCO3)[C@@H](C)CN([C@@H](C)CO)C(=O)c2cc(NC(=O)c3ccccc3)ccc2O1` | -37.42 |
| 30 | `Cn1cnc(S(=O)(=O)N2CCCCN3[C@@H](CO)[C@@H](c4ccc(-c5cccc(F)c5)cc4)[C@@H]3C2)c1` | -49.96 |
| 31 | `Cc1noc(C)c1S(=O)(=O)Nc1ccc2c(c1)C(=O)N([C@@H](C)CO)C[C@H](C)[C@@H](CN(C)S(=O)(=O)c1ccc(F)cc1)OCCCC[C@H](C)O2` | -33.89 |

4 of the entries, repeated:

| structure | activity change (Venus) (%) |
|---|---|
| `C[C@@H]1CCCCO[C@H](CN(C)C(=O)CCC(F)(F)F)[C@@H](C)CN([C@@H](C)CO)C(=O)c2cc(NC(=O)C3CCCCC3)ccc2O1` | -43.38 |
| `O=C(Nc1cccc(F)c1)N1CC(=O)N2[C@H](CO)[C@@H](c3ccc(-c4ccc(F)cc4)cc3)[C@@H]2C1` | -35.42 |
| `C[C@H]1CCCCO[C@H](CN(C)C(=O)C2CCCCC2)[C@@H](C)CN([C@@H](C)CO)C(=O)c2cc(NS(=O)(=O)c3ccc(F)cc3)ccc2O1` | -28.98 |
| `COc1ccc(CN(C)C[C@H]2OCCCC[C@@H](C)Oc3ccc(NS(=O)(=O)c4ccc(Cl)cc4)cc3C(=O)N([C@@H](C)CO)C[C@H]2C)cc1` | -72.17 |